Values quoted from earlier work in patent publication US7521479B2 (priority 2001, dated 2009).
At least one structure is not confirmed: it was looked up by name or label, or the drawing left a doubt.

The chains behind the UniProt entries cited, without tags or fusion partners. Residues count along the entry.
UniProt P05067, 672-711 limits assumed: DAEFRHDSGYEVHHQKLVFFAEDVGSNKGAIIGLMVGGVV

Key:
[1] = test system: neurons treated with PrP^C or PrP106-126; conditions: cited from earlier work
[2] = biological target: Aβ1-40 (Homo sapiens, UniProt P05067); conditions: cited from earlier work

## CCOC(=O)Nc1ccc(NCc2ccc(F)cc2)nc1N [Flupirtine]
[1]
  cytoprotective effect on neurons: strong cytoprotective effect

## CO[C@H]1/C=C/O[C@@]2(C)Oc3c(C)c(O)c4c(O)c(c(/C=N/N5CCN(C)CC5)c(O)c4c3C2=O)NC(=O)/C(C)=C\C=C\[C@H](C)[C@H](O)[C@@H](C)[C@@H](O)[C@@H](C)[C@H](OC(C)=O)[C@@H]1C [rifampicin]
[2]
  inhibition of Aβ1-40 aggregation and neurotoxicity: inhibited Aβ1-40 aggregation and neurotoxicity in a concentration-dependent manner
